This series has as its target SF6 small terminase (GP1) DBD wild type (Bacillus phage SF6) (UniProt P68928). In words: SPR. The following applies: 20 mM HEPES, 150 mM KCl (300 mM in second ReDCaT), pH 7.0, +0.05% Tween 20 for SPR, ReDCaT 20 uM protein, AUC 20 C, recombinant protein, residues 1-68, protein details: C-terminal 3C site-His tag, cleaved, label: 5'-biotin strand 3.
Where [1] appears, read: 300 mM KCl, no significant effect vs P14.

The exact form of at least one protein or probe is not confirmed. The comparison behind a weaker result is the experiment's own reference, which may not be listed here. At least one verdict was read from the data and is not stated in words by the source.

“AAAAGCGGCGGTTATATCTTGTAGCGTAGA / TCTACGCTACAAGATATAACCGCCGCTTTTCCTACCCTACGTCCTCCTGC / GCAGGAGGACGTAGGGTAGG [P2]”: under “150 mM KCl”, the binding result is “binds”.

Consider “AAATCCTCCAAGCTAACGAGGTTTTGGAGC / GCTCCAAAACCTCGTTAGCTTGGAGGATTTCCTACCCTACGTCCTCCTGC / GCAGGAGGACGTAGGGTAGG [F13 (S13)]”, for which, for the setting “150 mM KCl”, the binding result was “binds”.

On to “AAGCGGCTATTGCGGCTGGTTATAGTAAAA / TTTTACTATAACCAGCCGCAATAGCCGCTTCCTACCCTACGTCCTCCTGC / GCAGGAGGACGTAGGGTAGG [P12 (boxB)]”, for which the binding result is “binds” (150 mM KCl) and “binds more weakly” (300 mM KCl, not elevated).

For “AAGTAAAGGGGAAATGGACGCCCAAACTCG / CGAGTTTGGGCGTCCATTTCCCCTTTACTTCCTACCCTACGTCCTCCTGC / GCAGGAGGACGTAGGGTAGG [P9]”, the binding result is given as “binds” (150 mM KCl) and “binds more weakly” (300 mM KCl, average density).

As for “ACTCGAAAGATTTGTTGATGAATATTTCAT / ATGAAATATTCATCAACAAATCTTTCGAGTCCTACCCTACGTCCTCCTGC / GCAGGAGGACGTAGGGTAGG [P10]”, the binding result (150 mM KCl) is “binds”.

Consider “AGATTGGCACAAATGGACAAGAAAAGAATC / GATTCTTTTCTTGTCCATTTGTGCCAATCTCCTACCCTACGTCCTCCTGC / GCAGGAGGACGTAGGGTAGG [P16]”, for which, under “150 mM KCl”, the binding result is recorded as “binds”.

Turning to “AGCTATCCGCGCACGTATTGACGCTCGTTT / AAACGAGCGTCAATACGTGCGCGGATAGCTCCTACCCTACGTCCTCCTGC / GCAGGAGGACGTAGGGTAGG [F11 (S11, boxC)]”, the binding result reads like this: (150 mM KCl) “binds”; (300 mM KCl, not elevated) “binds more weakly”.

With “AGGTTCAAATATAGTTAGGAGGGGATTTTA / TAAAATCCCCTCCTAACTATATTTGAACCTCCTACCCTACGTCCTCCTGC / GCAGGAGGACGTAGGGTAGG [F4 (S4)]”, the binding result (150 mM KCl) was “binds”.

On to “AGTATTTTATAAACGACATGAACGCTACTA / TAGTAGCGTTCATGTCGTTTATAAAATACTCCTACCCTACGTCCTCCTGC / GCAGGAGGACGTAGGGTAGG [F7 (S7)]”, for which the binding result (150 mM KCl) is “binds”.

For the sequence “ATTAGGTTTATATAAGGTTTTAATTAGGTT / AACCTAATTAAAACCTTATATAAACCTAATCCTACCCTACGTCCTCCTGC / GCAGGAGGACGTAGGGTAGG [F3 (S3)]”, the binding result (150 mM KCl) is on record as “binds”.

For “CCAAAACAGGAAAGATTTATTGAAGAGTAT / ATACTCTTCAATAAATCTTTCCTGTTTTGGCCTACCCTACGTCCTCCTGC / GCAGGAGGACGTAGGGTAGG [F6 (S6)]”, the binding result (150 mM KCl) is given as “binds”.

As to “CCGGCTGATGTTTTGAAAGAAGCGAAAAAG / CTTTTTCGCTTCTTTCAAAACATCAGCCGGCCTACCCTACGTCCTCCTGC / GCAGGAGGACGTAGGGTAGG [P1]”, the binding result (150 mM KCl) is recorded as “binds”.

On to “CGTTTGAAGGAAATAAACGAGAAGAAAATC / GATTTTCTTCTCGTTTATTTCCTTCAAACGCCTACCCTACGTCCTCCTGC / GCAGGAGGACGTAGGGTAGG [F12 (S12)]”, for which the binding result (150 mM KCl) was “binds”.

“GCCGAGAACATGCAAAAACCGCACGTCCGC / GCGGACGTGCGGTTTTTGCATGTTCTCGGCCCTACCCTACGTCCTCCTGC / GCAGGAGGACGTAGGGTAGG [P14 (boxC)]”: the binding result (150 mM KCl) is listed as “binds” and the binding result (300 mM KCl, not elevated) was “binds more weakly”.

In the case of “GGAAAAGGAACAGGTGCTCATGGGAATTGG / CCAATTCCCATGAGCACCTGTTCCTTTTCCCCTACCCTACGTCCTCCTGC / GCAGGAGGACGTAGGGTAGG [F16 (S16)]”, the binding result (150 mM KCl) is reported as “binds”.

As to “GGAGCATTTGACTCGCATTGCACTCGGCCA / TGGCCGAGTGCAATGCGAGTCAAATGCTCCCCTACCCTACGTCCTCCTGC / GCAGGAGGACGTAGGGTAGG [F14 (S14)]”, under “150 mM KCl”, the binding result is recorded as “binds”.

Regarding “GGCCAGGAAAAGGAACAGGTGCTCATGGGA / TCCCATGAGCACCTGTTCCTTTTCCTGGCCCCTACCCTACGTCCTCCTGC / GCAGGAGGACGTAGGGTAGG [F15 (S15)]”, the binding result (150 mM KCl) is “binds”.

As to “GGCGGAATAACACAGAGAGGCACCCTATTT / AAATAGGGTGCCTCTCTGTGTTATTCCGCCCCTACCCTACGTCCTCCTGC / GCAGGAGGACGTAGGGTAGG [P4]”, the binding result (150 mM KCl) is given as “binds”.

Consider “GGCGGAATAACACAGAGAGGTACCCTATTT / AAATAGGGTACCTCTCTGTGTTATTCCGCCCCTACCCTACGTCCTCCTGC / GCAGGAGGACGTAGGGTAGG [F1 (S1)]”, for which the binding result (150 mM KCl) is reported as “binds”.

Regarding “GTAGAATGTTATAATGGATTTAATTGGCGG / CCGCCAATTAAATCCATTATAACATTCTACCCTACCCTACGTCCTCCTGC / GCAGGAGGACGTAGGGTAGG [P3]”, the binding result (150 mM KCl) is on record as “binds”.

As for “TAAAAAGTCTGCTTCGACTATTGCGGCCGA / TCGGCCGCAATAGTCGAAGCAGACTTTTTACCTACCCTACGTCCTCCTGC / GCAGGAGGACGTAGGGTAGG [P13 (boxB)]”, the binding result by setting is: (150 mM KCl) “binds”; (300 mM KCl, not elevated) “binds more weakly”.

On to “TACTAAAGCGGCTATTGCGGCAGGATATAG / CTATATCCTGCCGCAATAGCCGCTTTAGTACCTACCCTACGTCCTCCTGC / GCAGGAGGACGTAGGGTAGG [F8 (S8, boxB)]”, for which the binding result reads like this: (150 mM KCl) “binds”; (300 mM KCl, not elevated) “binds more weakly”.

Take “TATAGTAAAAATTCCGCGTCTGCTATTGGG / CCCAATAGCAGACGCGGAATTTTTACTATACCTACCCTACGTCCTCCTGC / GCAGGAGGACGTAGGGTAGG [F9 (S9)]”: the binding result (150 mM KCl) was “binds”.

Consider “TATTTGGGTGCTTTTTTGTTGTATAATTAG / CTAATTATACAACAAAAAAGCACCCAAATACCTACCCTACGTCCTCCTGC / GCAGGAGGACGTAGGGTAGG [F2 (S2), same sequence as P5]”, for which the binding result is “binds” (150 mM KCl) and “binds more weakly” (300 mM KCl, not elevated).

As for “TATTTGGGTGCTTTTTTGTTGTATAATTAG / CTAATTATACAACAAAAAAGCACCCAAATACCTACCCTACGTCCTCCTGC / GCAGGAGGACGTAGGGTAGG [P5]”, the binding result (150 mM KCl) is given as “binds”.

Take “TCCGCGCACGTATCGAGGAAAGATTGGCAC / GTGCCAATCTTTCCTCGATACGTGCGCGGACCTACCCTACGTCCTCCTGC / GCAGGAGGACGTAGGGTAGG [P15 (boxC)]”: the binding result is recorded as “binds” (150 mM KCl) and “binds more weakly” (300 mM KCl, not elevated).

On to “TTCAGATATGAGGTTCAAATATAGTTTTAA / TTAAAACTATATTTGAACCTCATATCTGAACCTACCCTACGTCCTCCTGC / GCAGGAGGACGTAGGGTAGG [P7]”, for which, for the setting “150 mM KCl”, the binding result was “binds”.

As for “TTCATAAACGGCATGAATGCAACAAAAGCG / CGCTTTTGTTGCATTCATGCCGTTTATGAACCTACCCTACGTCCTCCTGC / GCAGGAGGACGTAGGGTAGG [P11]”, the binding result (150 mM KCl) is reported as “binds”.

For “TTGCGGCCGAGAACATGCAAAAACCGCACGTCCG / CGGACGTGCGGTTTTTGCATGTTCTCGGCCGCAACCTACCCTACGTCCTCCTGC / GCAGGAGGACGTAGGGTAGG [P14_L]”, the binding result (300 mM KCl, parent of P14 series) is on record as “binds more weakly”.

In the case of “TTGCGGCCGAGAACATGCAGAAACCGCACGTCCG / CGGACGTGCGGTTTCTGCATGTTCTCGGCCGCAACCTACCCTACGTCCTCCTGC / GCAGGAGGACGTAGGGTAGG [A20G]”, the binding result under setting [1] is given as “binds more weakly”.

On to “TTGGGGCAGAAAACATGCAGAAACCGCACGTCCG / CGGACGTGCGGTTTCTGCATGTTTTCTGCCCCAACCTACCCTACGTCCTCCTGC / GCAGGAGGACGTAGGGTAGG [C8A (cumulative)]”, for which the binding result under setting [1] was “binds more weakly”.

Consider “TTGGGGCAGAAAACTTACAGAAACCAGCTA / TAGCTGGTTTCTGTAAGTTTTCTGCCCCAACCTACCCTACGTCCTCCTGC / GCAGGAGGACGTAGGGTAGG [F10 (S10)]”, for which, where the note is “150 mM KCl”, the binding result was “binds”.

For the sequence “TTGGGGCAGAAAACTTACAGAAACCGCACGTCCG / CGGACGTGCGGTTTCTGTAAGTTTTCTGCCCCAACCTACCCTACGTCCTCCTGC / GCAGGAGGACGTAGGGTAGG [G17A (cumulative)]”, the binding result under setting [1] is on record as “binds more weakly”.

Regarding “TTGGGGCAGAAAACTTGCAGAAACCGCACGTCCG / CGGACGTGCGGTTTCTGCAAGTTTTCTGCCCCAACCTACCCTACGTCCTCCTGC / GCAGGAGGACGTAGGGTAGG [A15T (cumulative)]”, under setting [1], the binding result is given as “binds more weakly”.

For “TTGGGGCCGAAAACATGCAGAAACCGCACGTCCG / CGGACGTGCGGTTTCTGCATGTTTTCGGCCCCAACCTACCCTACGTCCTCCTGC / GCAGGAGGACGTAGGGTAGG [G11A (cumulative)]”, the binding result under setting [1] is “binds more weakly”.

In the case of “TTGGGGCCGAGAACATGCAGAAACCGCACGTCCG / CGGACGTGCGGTTTCTGCATGTTCTCGGCCCCAACCTACCCTACGTCCTCCTGC / GCAGGAGGACGTAGGGTAGG [C4G (cumulative)]”, the binding result under setting [1] was “binds more weakly”.

For “TTTAAGGAGGTTTTTTCTATGGGAGAAGTA / TACTTCTCCCATAGAAAAAACCTCCTTAAACCTACCCTACGTCCTCCTGC / GCAGGAGGACGTAGGGTAGG [P8]”, the binding result is, setting by setting: (150 mM KCl) “binds”; (300 mM KCl, average density) “binds more weakly”.

Source of the values: article PMC4737164, “DNA recognition for virus assembly through multiple sequence-independent interactions with a helix-turn-helix motif”.
